The values that follow come from PubChem BioAssay AID2685 (National Center for Advancing Translational Sciences (NCATS), 2010).

This is one part of the list. The main result of the screen is listed elsewhere. These columns were measured beside it and carry no call. The list favours compounds with an active or inconclusive main result. The note in brackets gives the kind of curve behind each potency; many fits are weak.

The nature of the test: qHTS Assay for Lipid Storage Modulators in Drosophila S3 Cells.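 On cell number change: cells counted by Cell Tracker Red CMTPX staining in the red channel.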 To be noted: BODIPY lipid droplet fluorescence, 18-24 h; for cell number change: measured here: cell count max response, cells fed with added oleic acid. A digest of the protocol:
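Drosophila S3 cells got compounds at several concentrations plus oleic acid (400 uM solution). Laser-scanning cytometry with 488 nm excitation read lipid droplets at 500-530 nm and cells at 575-640 nm. Percent activity was relative to 20 uM Triacsin C.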

[1] abbreviates: measured here: lipid fluorescence (Fed channel) AC50, cells fed with added oleic acid.
[2] abbreviates: measured here: cell number channel AC50, cells fed with added oleic acid.

Usually AC50 stands for the midpoint of the concentration-response curve, whichever way the signal moves. Low values mean activity at low concentration, high ones activity only at high concentration. For `C/C(=N\NC(=O)c1nc2ccccn2c1C)c1ccco1`, the cell number change was determined as 23.8%. Also, the half-maximal activity concentration (AC50) under setting [1] is 0.58 µM [rising, full curve, poor fit]. Consider `COc1ccc(CC(=O)Nc2ccc(S(=O)(=O)Nc3nccs3)cc2)cc1`, for which the cell number change is -5.83%. Further, the AC50 under setting [1] was 4.61 µM [rising, single point]. Take `CCN1CCSc2ccc(C(=O)NCc3ccccc3C)cc21`: the cell number change is -6.05%. Besides, under setting [1], the AC50 is 3.66 µM [rising, single point]. As to `CSc1nc2c(c(=O)[nH]c(=O)n2C)n1C/C=C(\C)Cl`, the AC50 under setting [2] was 0.651 µM [falling, partial curve].

As to `CC(C)C(=O)NC(=S)N(Cc1ccccc1)Cc1ccccc1`, the cell number change was -9.69%. In addition, under setting [1], the half-maximal activity concentration (AC50) is 0.164 µM [falling, full curve, poor fit]. Take `COC(=O)C(C)Sc1snnc1-c1ccccc1` (configuration not stated): the cell number change is -30.6%. Besides, the half-maximal activity concentration (AC50) under setting [2] was 1.3 µM [falling, full curve]. For the molecule `O=C1CC(NS(=O)(=O)c2ccccc2F)CN1c1ccc2c(c1)OCCO2` (configuration not stated), the cell number change came to 47.8%. Moreover, the AC50 under setting [2] is 18.4 µM [rising, single point]. For the molecule `C=CCCN([C@@H](C)C(=O)OC)S(=O)(=O)c1ccccc1Br`, the cell number change is -10%. For the same molecule, under setting [1], the AC50 was 0.58 µM [falling, partial curve, poor fit]. With `Cc1cc(C(F)(F)F)nn1-c1nc(-c2ccco2)cc(C(F)(F)F)n1`, the cell number change was -40.2%. Further, the AC50 under setting [2] is 11.6 µM [falling, partial curve]. Besides, the AC50 under setting [1] was 1.84 µM [rising, partial curve]. `Cc1no[n+]([O-])c1COc1cccc(/C=N/Nc2nncn2N)c1`: the cell number change is -21.9%. The AC50 under setting [1] is 29.1 µM [falling, single point]. `COc1ccc(C2C(C(=O)c3ccco3)=C(O)C(=O)N2CC2CCCO2)cc1` (configuration not stated): the cell number change was 43.7%. Further, under setting [2], the AC50 is 10.3 µM [rising, partial curve]. Further, the half-maximal activity concentration (AC50) under setting [1] was 10.3 µM [rising, partial curve].

As to `O=C(NCCO)c1nc(NCCO)c2ccccc2n1`, the cell number change was -108%. The AC50 under setting [2] was 20.6 µM [falling, partial curve]. `NC(=O)c1ccc(NC(=O)C2CCCO2)cc1` (configuration not stated): the cell number change was -1.85%. Further, the AC50 under setting [1] was 3.26 µM [falling, partial curve, poor fit]. For the molecule `Cc1cc(=O)n2nc(N3CCCC(C(=O)NCCc4ccccc4)C3)sc2n1` (configuration not stated), the cell number change was 30.6%. Moreover, the AC50 under setting [2] was 9.2 µM [rising, single point]. As for `CCc1cccc(NC(=O)C2CCN(S(=O)(=O)c3c(C)noc3C)CC2)c1`, the cell number change was -31.1%. For the same molecule, the AC50 under setting [2] is 23.1 µM [falling, single point]. Further, under setting [1], the concentration at half-maximal activity (AC50) was 23.1 µM [falling, single point]. As for `CC(=O)NCCNC(=O)CCNC(=O)c1ccc(Cl)cc1`, the cell number change is -30%. For the same molecule, under setting [2], the AC50 is 0.731 µM [falling, full curve, poor fit]. For the same molecule, the AC50 under setting [1] is 20.6 µM [falling, partial curve]. For `Cn1c(=O)n(C)c2cc(S(=O)(=O)NCc3ccco3)ccc21`, the cell number change is 22.5%. Besides, the half-maximal activity concentration (AC50) under setting [2] was 0.164 µM [rising, full curve, poor fit]. `O=C(COC(=O)c1ccccc1F)NC1CCCC1`: the cell number change is -25.9%. The AC50 under setting [1] was 25.9 µM [falling, single point]. `CC1CCCCN1S(=O)(=O)c1ccc(NC(=O)c2cccs2)cc1` (configuration not stated): the half-maximal activity concentration (AC50) under setting [1] is 7.31 µM [rising, partial curve]. As for `CC(C)c1cc(C(C)C)c(S(=O)(=O)NNC(=O)c2ccncc2)c(C(C)C)c1`, the cell number change worked out at 25.1%. Also, the AC50 under setting [1] is 16.4 µM [rising, partial curve, poor fit].

Regarding `CCOc1ccc(S(=O)(=O)N2CCCCC2)cc1NC(=O)C1CCC1`, the cell number change turned out to be 20.2%. With `COc1ccc(-n2cc(CNCCN3CCOC3=O)c(-c3ccccc3Cl)n2)cc1`, the cell number change came to 22.7%. Besides, the concentration at half-maximal activity (AC50) under setting [1] was 6.51 µM [rising, full curve, poor fit]. Turning to `CCOc1ccc(NC(=O)CN(C)C(=O)c2cc3c(s2)CCC(C)C3)cc1OCC` (configuration not stated), the cell number change came to 2.85%. Under setting [1], the AC50 was 8.2 µM [falling, partial curve]. With `O=C(NCC(c1ccco1)N1CCOCC1)C1CCCCC1` (configuration not stated), the cell number change is -30.5%. Besides, under setting [1], the AC50 is 29.1 µM [falling, partial curve, poor fit]. With `O=C(NC1CCCC1)c1cc(-c2ccc(F)cc2)on1`, the cell number change was determined as 14.8%. Consider `Cc1cc(=O)oc(C)c1C(=O)NCC1CCCO1` (configuration not stated), for which the cell number change is -26.7%. The AC50 under setting [2] was 0.0731 µM [falling, full curve, poor fit]. Further, the AC50 under setting [1] was 29.1 µM [falling, single point]. For `CC(C)c1ccc(/C=C(/C#N)c2nnc(NC(=O)c3ccccc3)s2)cc1`, the cell number change was -5.55%. In addition, the concentration at half-maximal activity (AC50) under setting [1] is 23.1 µM [rising, partial curve]. On to `O=C(COc1ccccc1)Nc1ccc(S(=O)(=O)NCc2ccco2)cc1`, for which the cell number change amounted to 6.88%. For `COc1cc(-c2noc(CCCC(=O)NCc3ccccc3)n2)cc(OC)c1OC`, the cell number change came to 44.7%. Moreover, under setting [2], the AC50 was 0.092 µM [rising, full curve, poor fit]. For the molecule `CC(C)C(C)NC(=O)CN1C(=O)NC(c2ccccc2)(c2ccccc2)C1=O` (configuration not stated), the AC50 under setting [1] is 29.1 µM [rising, partial curve].

In the case of `COc1cc2[nH]c3c(N4CCN(c5ccccn5)CC4)ncnc3c2cc1OC`, the cell number change is -53.4%. In addition, the AC50 under setting [2] was 25.9 µM [falling, single point]. Also, the AC50 under setting [1] is 29.1 µM [falling, single point]. On to `CCOC(=O)Nc1cccc(NC(=O)c2ccccc2F)c1`, for which the cell number change is -1.09%. In addition, the AC50 under setting [1] is 0.731 µM [rising, single point].

For the molecule `COc1ccc(-c2nc3c4ccccc4ccn3c2CN2CCOCC2)cc1OC`, the cell number change is -16.9%. In addition, the half-maximal activity concentration (AC50) under setting [1] is 25.9 µM [falling, single point].

Turning to `CCC(c1nnnn1C(C)(C)C)N1CCN(C2CCCC2)CC1` (configuration not stated), the cell number change is -209%. In addition, the half-maximal activity concentration (AC50) under setting [2] is 29.1 µM [falling, partial curve]. Further, the AC50 under setting [1] is 25.9 µM [falling, partial curve]. Regarding `CC(C)SCCCOc1ccc(C(C)(C)C)cc1`, the cell number change is -0.445%. Also, under setting [2], the AC50 was 0.164 µM [falling, full curve, poor fit]. As to `CCOC(=O)N/N=C(/C)c1ccc(N2C(=O)C3CCCCC3C2=O)cc1` (configuration not stated), the cell number change is -19.3%. Also, the AC50 under setting [1] was 0.731 µM [falling, partial curve, poor fit]. On to `CCOC(=O)c1c(NC(=O)c2ccco2)sc2c1CCCCC2`, for which the cell number change worked out at 16.4%. As to `O=C(CNC1CCCCCC1)c1cccs1`, under setting [1], the AC50 was 0.00461 µM [rising, full curve, poor fit].

Consider `COC(=O)C1=C(C)NC(=O)C1(NS(=O)(=O)c1ccc(C)cc1)C(F)(F)F` (configuration not stated), for which the cell number change was -17.7%. In addition, the AC50 under setting [2] is 0.651 µM [falling, full curve, poor fit]. For the same molecule, under setting [1], the AC50 was 29.1 µM [falling, single point]. For the molecule `O=C(Nc1ccc(Cl)c(Cl)c1)Nc1cc(S(=O)(=O)N2CCOCC2)ccc1N1CCCC1`, the cell number change came out at 8.61%. With `COc1ccc(S(=O)(=O)N2CCN(c3ccc(F)cc3)CC2)cc1C(=O)N1CCCC1`, the cell number change amounted to 6.25%. Turning to `CCn1c(=O)c2cc(C(=O)N(C)c3cc(C)ccc3OC)sc2c2ccccc21`, the cell number change was -12.1%. Moreover, the AC50 under setting [1] is 0.651 µM [falling, single point].

Regarding `O=C(O)c1ccc(-n2c(-c3ccccc3)n[nH]c2=S)cc1`, under setting [2], the AC50 was 3.66 µM [falling, single point].

For the molecule `CC1CN(S(=O)(=O)c2ccc(C(=O)OCc3ccc(C#N)cc3)cc2)CC(C)O1` (configuration not stated), the cell number change was -2.81%. Further, under setting [1], the AC50 was 2.06 µM [rising, partial curve]. On to `Fc1ccc2[nH]c3c(N4CCSCC4)ncnc3c2c1`, for which the cell number change was -1.66%. Moreover, the AC50 under setting [2] is 1.3 µM [rising, partial curve]. Also, the AC50 under setting [1] is 1.46 µM [rising, partial curve]. Consider `CCc1nn(C(C)C(=O)N2CCc3ccccc3C2)c(=O)c2cc3occc3n12` (configuration not stated), for which the cell number change came out at 39.7%. Moreover, the AC50 under setting [2] is 29.1 µM [rising, single point]. Further, the AC50 under setting [1] is 1.16 µM [rising, single point]. As to `CCCCN(C(=O)C1=NN(c2ccccc2)C(=O)CC1)c1c(N)n(CC(C)C)c(=O)[nH]c1=O`, the cell number change is -2.38%. The AC50 under setting [1] was 20.6 µM [rising, single point].

`C/C(=N\NC(=O)COc1cccc(Br)c1)c1ccc2c(c1)OCCO2`: the cell number change is -16.4%. The AC50 under setting [1] is 6.51 µM [rising, single point]. For the molecule `CNC[C@H](CC1CCCCC1)NC[C@H](CO)NCCc1cccc(C(F)(F)F)c1`, the cell number change came out at 8.38%. Also, under setting [1], the AC50 was 5.8 µM [rising, partial curve, poor fit]. As for `NS(=O)(=O)c1ccc(CCNC(=O)c2cnccn2)cc1`, the cell number change is -10.5%.

Turning to `CCn1c(SCC(N)=O)nnc1-c1ccc(S(=O)(=O)N2CCN(C)CC2)cc1`, the cell number change was -17.2%. For the same molecule, under setting [1], the AC50 was 0.00517 µM [falling, full curve, poor fit]. For the molecule `CCCOc1ccc(NC(=O)Cc2ccc(S(=O)(=O)N3CCOCC3)s2)cc1OCCC`, the cell number change was -25%. Besides, the AC50 under setting [2] was 0.58 µM [falling, single point]. Regarding `CC(C)CN1CCC(C(=O)N2CCN(c3ccccc3F)CC2)CC1`, the cell number change was -28.1%. The AC50 under setting [2] was 3.66 µM [falling, full curve, poor fit]. Under setting [1], the half-maximal activity concentration (AC50) is 13 µM [falling, partial curve]. Turning to `O=C(c1cccc([N+](=O)[O-])c1)c1cc2ccccc2o1`, the cell number change worked out at 10.5%. The AC50 under setting [1] is 6.51 µM [falling, full curve]. Turning to `O=C1N/C(=N\N=C\c2cccnc2)SC1Cc1ccc(SC(F)F)cc1` (configuration not stated), the cell number change is -5.27%.

As for `CCCn1nnnc1NCc1ccc(N(CC)CC)cc1`, the cell number change was -1.93%. In the case of `COc1ccc([C@@H]2CC=C(C(=O)O)[C@H](c3cccc(Cl)c3)N2S(=O)(=O)c2ccccc2C)cc1`, the cell number change is -18%. The AC50 under setting [1] was 29.1 µM [falling, single point]. Take `CCOC(=O)Cc1ccc(NC(=O)c2ccc([N+](=O)[O-])cc2)cc1`: the cell number change came to 18%. In addition, under setting [1], the AC50 was 1.03 µM [rising, single point]. Turning to `COc1ccc2sc(N(CCCN(C)C)C(=O)c3nc4ccccc4s3)nc2c1`, the cell number change is 9.68%.

Take `C#CCOCCOCCOCCNc1nc(N2CCN(C(=O)CCCCCCCCCCNC(=O)[C@H]([C@@H](C)CC)n3cc(CCCCCN)nn3)CC2)nc(N2CCN(C(=O)CCCCCCCCCCNC(=O)[C@@H]([C@H](C)O)n3cc(C)nn3)CC2)n1`: the cell number change is -64.2%. In addition, the AC50 under setting [2] is 29.1 µM [falling, partial curve, poor fit]. For the same molecule, the AC50 under setting [1] is 25.9 µM [falling, partial curve, poor fit].
